In paper PMC6615629, “Hsp70-nucleotide exchange factor (NEF) Fes1 has non-NEF roles in degradation of gluconeogenic enzymes and cell wall integrity” (PLoS Genetics, 2019):
Results are given in words; binding and its absence hold for the method and conditions named. In cells and extracts the contact can be indirect. Some entries that bind do so weakly or less than the wild type. Tags and fused reporters may be left off the sequences shown.

Legend:
[1] = target: T1, Fes1-GST (wild type) (yeast (S. cerevisiae)) (UniProt P38260); experiment: pull-down; Fes1-GST fusions purified on GST-beads from lysates of fes1Δ yeast grown at 30°C with or without calcofluor white (60 min); eluted with 20 mM glutathione; western blot for Slt2
T1 sequence: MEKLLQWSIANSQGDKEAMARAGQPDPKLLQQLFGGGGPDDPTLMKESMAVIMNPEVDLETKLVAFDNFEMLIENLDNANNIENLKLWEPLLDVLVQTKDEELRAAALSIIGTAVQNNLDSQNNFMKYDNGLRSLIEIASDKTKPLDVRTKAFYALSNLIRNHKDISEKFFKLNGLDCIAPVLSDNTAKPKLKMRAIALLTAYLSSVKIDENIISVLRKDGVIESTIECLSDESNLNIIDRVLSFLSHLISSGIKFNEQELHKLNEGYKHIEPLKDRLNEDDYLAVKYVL

[2] = target: T2, Fes1^A79R,R195A-GST (yeast (S. cerevisiae)) (UniProt P38260); experiment: as above
T2 sequence: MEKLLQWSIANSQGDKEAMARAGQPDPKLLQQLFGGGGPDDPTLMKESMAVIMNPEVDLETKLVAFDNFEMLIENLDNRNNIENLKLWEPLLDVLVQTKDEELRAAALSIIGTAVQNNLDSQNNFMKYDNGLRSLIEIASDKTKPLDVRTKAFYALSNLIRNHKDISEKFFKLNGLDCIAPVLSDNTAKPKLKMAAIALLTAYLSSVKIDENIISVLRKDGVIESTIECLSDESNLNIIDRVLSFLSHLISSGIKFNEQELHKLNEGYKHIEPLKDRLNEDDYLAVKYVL

B1: Slt2 (enzyme, UniProt Q00772 1-484)
chain: MADKIERHTFKVFNQDFSVDKRFQLIKEIGHGAYGIVCSARFAEAAEDTTVAIKKVTNVFSKTLLCKRSLRELKLLRHFRGHKNITCLYDMDIVFYPDGSINGLYLYEELMECDMHQIIKSGQPLTDAHYQSFTYQILCGLKYIHSADVLHRDLKPGNLLVNADCQLKICDFGLARGYSENPVENSQFLTEYVATRWYRAPEIMLSYQGYTKAIDVWSAGCILAEFLGGKPIFKGKDYVNQLNQILQVLGTPPDETLRRIGSKNVQDYIHQLGFIPKVPFVNLYPNANSQALDLLEQMLAFDPQKRITVDEALEHPYLSIWHDPADEPVCSEKFEFSFESVNDMEDLKQMVIQEVQDFRLFVRQPLLEEQRQLQLQQQQQQQQQQQQQQQQPSDVDNGNAAASEENYPKQMATSNSVAPQQESFGIHSQNLPRHDADFPPRPQESMMEMRPATGNTADIPPQNDNGTLLDLEKELEFGLDRKYF
Question: What does the source list for B1?
Answer: binding [1]: binds; binding [2]: binds
